Results reported in PubChem BioAssay AID328 (DTP/NCI, 2004).
The list is a part of this screen's results and no random one: it is rich in T/C values a quarter to a half above the control, in often repeated tests (any T/C) and in doses without a T/C. Other doses and runs of a compound stand elsewhere. T/C is the treated group as % of the vehicle group. Some entries give survivors of the animals treated and no T/C: the source files T/C as zero there, which appears to mark a toxic dose or a test without result, not a measured value. Some doses without a T/C left all or most animals alive at the check, yet need not have been tolerated: survival well below the control is almost never listed, so the zero probably covers shortened survival too. Counts of survivors are from the toxicity check (mostly the fifth day) where no day follows; animals may have died later. Schedules are NCI's codes, taken here to give the interval after Q, in days (D) or hours (H), and the number of doses after X. Some entries hold several experiments; their values stand side by side, smallest first. Marks such as (2×) stand for listed records that agree. For survival time, this PubChem deposit counts one and a half times the control or more as active, and values a quarter to a half above the control carry no call in these data; other NCI protocols may use other cut-offs. Some T/C values are followed by the survivors on the day toxicity was checked, most often the fifth; without a count, all were alive then.

Test system: BDF1 mice, P388 leukemia ip, median survival T/C
Assay: NCI In Vivo Anticancer Drug Screen. Data for tumor model P388 Leukemia (intraperitoneal) in B6D2F1 (BDF1) mice
Conditions: T/C endpoint: median survival time, higher T/C = longer survival
Summary of the method: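 Survival ratio, drug arm over vehicle arm, in mice with a transplanted tumour.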

[1] = dose: 100.0 mg/kg/injection, schedule: Q01DX009 (ip), vehicle: Klucel (hydroxypropylcellulose) (HPC)
[2] = dose: 200.0 mg/kg/injection, schedule: Q01DX009 (ip), vehicle: Klucel (hydroxypropylcellulose) (HPC)
[3] = dose: 400.0 mg/kg/injection, schedule: Q01DX009 (ip), vehicle: Klucel (hydroxypropylcellulose) (HPC)
[4] = dose: 100.0 mg/kg/injection, schedule: Q01DX009 (ip), vehicle: saline
[5] = dose: 200.0 mg/kg/injection, schedule: Q01DX009 (ip), vehicle: saline with Tween-80
[6] = dose: 12.5 mg/kg/injection, schedule: Q01DX009 (ip), vehicle: saline
[7] = dose: 25.0 mg/kg/injection, schedule: Q01DX009 (ip), vehicle: saline
[8] = dose: 100.0 mg/kg/injection, schedule: Q01DX009 (ip), vehicle: saline with Tween-80
[9] = dose: 50.0 mg/kg/injection, schedule: Q01DX009 (ip), vehicle: saline
[10] = dose: 200.0 mg/kg/injection, schedule: Q01DX009 (ip), vehicle: saline

CN=C(c1ccc(NC(=O)c2ccc(C(=O)Nc3ccc(C(=NC)N(C)C)cc3)cc2)cc1)N(C)C
survivor count (dose: 8.0 mg/kg/injection, schedule: Q01DX010 (ip), vehicle: water): 3 of 6 | survivor count (dose: 16.0 mg/kg/injection, schedule: Q01DX010 (ip), vehicle: water): 0 of 6

O=C1NC(=O)C2C3C(C(O)(c4ccccc4)c4ccccn4)=CC(/C3=C(\c3ccccc3)c3ccccn3)C12 (configuration not stated)
survivor count [1]: 6 of 6 | survivor count [2]: 6 of 6 | survivor count [3]: 6 of 6

O=c1oc2ccccc2c2c1C(c1ccc3c(c1)OCO3)C=C(c1ccc3c(c1)OCO3)O2 (configuration not stated)
survivor count (dose: 100.0 mg/kg/injection, schedule: Q01DX009 (ip), vehicle: water): 4 of 6 | T/C (dose: 400.0 mg/kg/injection, schedule: Q01DX009 (ip), vehicle: water): 132 % of control [5 of 6 alive] | T/C (dose: 600.0 mg/kg/injection, schedule: Q04DX003 (ip), vehicle: water): 127 % of control

COc1ccc(Cc2nccc3c(OC)c(OC)ccc23)cc1OC
T/C [4]: 128 % of control | survivor count (dose: 400.0 mg/kg/injection, schedule: Q04DX003 (ip), vehicle: saline): 1 of 6

CCOc1ccc(NC(=S)N(C)C)cc1
survivor count [5]: 0 of 6

OCCc1ccccc1
survivor count (dose: 400.0 mg/kg/injection, schedule: Q01DX009 (ip), vehicle: saline sonified): 2 of 6

O=c1[nH]c(=O)n(CC(O)c2ccc(Cl)s2)cc1F (configuration not stated)
T/C (dose: 100.0 mg/kg/injection, schedule: Q04DX003 (ip), vehicle: saline with Tween-80): 126 % of control

CC[C@](C)(O)C(=O)O[C@H]1C(=O)O[C@@H]2C[C@H]3C(C)=C[C@H](O)[C@@H](O)[C@]3(C)[C@H]3[C@@]4(O)OC[C@]32[C@@H]1[C@@H](C)[C@H]4O
T/C (dose: 2.0 mg/kg/injection, schedule: Q01DX010 (ip), vehicle: other): 127 % of control | survivor count (dose: 8.0 mg/kg/injection, schedule: Q01DX010 (ip), vehicle: other): 1 of 4 | survivor count (dose: 10.0 mg/kg/injection, schedule: Q01DX010 (ip), vehicle: carboxymethylcellulose (CMC)): 0 of 6 | survivor count (dose: 20.0 mg/kg/injection, schedule: Q01DX010 (ip), vehicle: carboxymethylcellulose (CMC)): 0 of 6

CC(C)=CCc1cc(O)ccc1O
T/C (dose: 1.56 mg/kg/injection, schedule: Q01DX009 (ip), vehicle: saline with Tween-80): 131 % of control | T/C (dose: 3.12 mg/kg/injection, schedule: Q01DX009 (ip), vehicle: saline with Tween-80): 138 % of control | T/C (dose: 12.5 mg/kg/injection, schedule: Q01DX009 (ip), vehicle: saline with Tween-80): 126 % of control

CCC/C(C)=N/Nc1ccccn1
survivor count [6]: 0 of 6 | survivor count [7]: 0 of 6 | T/C [1]: 125 % of control | survivor count [1]: 2 of 6 | survivor count [8]: 5 of 6

N=c1ccn2c(n1)OC1C(O)C(CO)OC12 (configuration not stated)
T/C (dose: 39.0 mg/kg/injection, schedule: Q01DX009 (ip), vehicle: water, evaluated on day 7): 178 and 195 % of control | T/C (dose: 39.0 mg/kg/injection, schedule: Q01DX009 (ip), vehicle: water, evaluated on day 62): 178 [7 of 8 alive] and 195 % of control | T/C (dose: 65.0 mg/kg/injection, schedule: Q01DX009 (ip), vehicle: water, evaluated on day 7): 181 and 192 % of control | T/C (dose: 65.0 mg/kg/injection, schedule: Q01DX009 (ip), vehicle: water, evaluated on day 62): 181 and 192 % of control | T/C (dose: 108.0 mg/kg/injection, schedule: Q01DX009 (ip), vehicle: water, evaluated on day 7): 195 and 225 % of control | T/C (dose: 108.0 mg/kg/injection, schedule: Q01DX009 (ip), vehicle: water, evaluated on day 62): 195 and 225 % of control | T/C (dose: 180.0 mg/kg/injection, schedule: Q01DX009 (ip), vehicle: water, evaluated on day 7): 209 and 219 % of control | T/C (dose: 180.0 mg/kg/injection, schedule: Q01DX009 (ip), vehicle: water, evaluated on day 62): 209 and 219 % of control | T/C (dose: 300.0 mg/kg/injection, schedule: Q01DX009 (ip), vehicle: water, evaluated on day 7): 219 and 236 % of control | T/C (dose: 300.0 mg/kg/injection, schedule: Q01DX009 (ip), vehicle: water, evaluated on day 62): 219 and 236 % of control | T/C (dose: 500.0 mg/kg/injection, schedule: Q01DX009 (ip), vehicle: water, evaluated on day 7): 117 and 221 % of control | T/C (dose: 500.0 mg/kg/injection, schedule: Q01DX009 (ip), vehicle: water, evaluated on day 62): 221 % of control | survivor count (dose: 500.0 mg/kg/injection, schedule: Q01DX009 (ip), vehicle: water): 5 of 8

O=P(N1CCOCC1)(N1CC1)N1CC1
T/C (dose: 6.25 mg/kg/injection, schedule: Q01DX009 (ip), vehicle: saline): 131 % of control | survivor count [7]: 6 of 6 | survivor count [9]: 6 of 6 (2×) and 7 of 7 | survivor count [4]: 3 of 6

CSC(N)=Nc1cccc2c1CCCC2
survivor count (dose: 200.0 mg/kg/injection, schedule: Q04DX003 (ip), vehicle: saline): 6 of 6

O=C(Nc1nnc(C(F)(F)F)s1)c1c(F)cccc1F
survivor count [8]: 3 of 6 | survivor count [5]: 0 of 6

CC1(C)CC(=O)C(C)(C)C(=O)C1
survivor count (dose: 12.5 mg/kg/injection, schedule: Q04DX003 (ip), vehicle: saline with Tween-80): 6 of 6 | survivor count (dose: 25.0 mg/kg/injection, schedule: Q01DX009 (ip), vehicle: saline with Tween-80): 0 of 6 | survivor count (dose: 50.0 mg/kg/injection, schedule: Q04DX003 (ip), vehicle: saline with Tween-80): 1 of 6

c1cc(NC2CCCCC2)ccc1CN1CCOCC1
T/C (dose: 100.0 mg/kg/injection, schedule: Q01DX009 (ip), vehicle: other): 126 % of control | T/C (dose: 400.0 mg/kg/injection, schedule: Q01DX009 (ip), vehicle: other): 145 % of control

CN=NNc1ccccc1
T/C (dose: 99.0 mg/kg/injection, schedule: Q04DX003 (ip), vehicle: saline with Tween-80): 130 % of control | survivor count (dose: 150.0 mg/kg/injection, schedule: Q01DX009 (ip), vehicle: other): 6 of 6 | T/C (dose: 150.0 mg/kg/injection, schedule: Q04DX003 (ip), vehicle: saline with Tween-80): 140 % of control | survivor count (dose: 300.0 mg/kg/injection, schedule: Q01DX009 (ip), vehicle: other): 6 of 6

O=C(CC(c1ccccc1)C(C(=O)O)c1ccccc1)c1ccccc1 (configuration not stated)
T/C [2]: 138 % of control [5 of 6 alive]

Nc1[nH]c(=O)nc2nc[nH]c12
survivor count [4]: 6 of 6 | survivor count [10]: 6 of 6 | survivor count (dose: 400.0 mg/kg/injection, schedule: Q01DX009 (ip), vehicle: saline): 6 of 6

CCN(CC)CCCCCCNc1cc(OC)c(OC)c2c(C)ccnc12
survivor count [6]: 6 of 6 | survivor count [9]: 0 of 6 | survivor count [4]: 0 of 6 | survivor count [10]: 0 of 6

COc1cc2c(cc1OC)-c1cc3cc(OC)c(OC)cc3c(CCC(=O)O)[n+]1CC2
survivor count (dose: 300.0 mg/kg/injection, schedule: Q01DX009 (ip), vehicle: Klucel (hydroxypropylcellulose) (HPC)): 3 of 3

N#CC1(c2ccc(Cl)cc2)CCC1
survivor count (dose: 400.0 mg/kg/injection, schedule: Q01DX009 (ip), vehicle: saline with Tween-80): 5 of 6

Cc1n[nH]c(=O)[nH]c1=O
survivor count [2]: 6 of 6 | survivor count [3]: 5 of 6

CC(C)SC=O
T/C [10]: 136 % of control

CC(C)CC(NC(=O)CN)C(=O)O (configuration not stated)
T/C [4]: 125 % of control

O=c1[nH]nc(CF)c(=O)[nH]1
T/C (dose: 6.0 mg/kg/injection, schedule: Q01DX009 (ip), vehicle: saline): 133 and 140 % of control | T/C (dose: 12.0 mg/kg/injection, schedule: Q01DX009 (ip), vehicle: saline): 127 and 133 % of control | survivor count (dose: 24.0 mg/kg/injection, schedule: Q01DX009 (ip), vehicle: saline): 6 of 6 | survivor count (dose: 48.0 mg/kg/injection, schedule: Q01DX009 (ip), vehicle: saline): 6 of 6
